Results deposited as PubChem BioAssay AID743454 (Peter MacCallum Cancer Centre, 2014)

Test: 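Genes whose loss kills vorinostat-resistant colon cancer cells under vorinostat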 (primary screen)
Cell system: human HCT116-VR colon cancer cells, selected for vorinostat resistance
Reagent: siRNA pool against human genes, 40 nM siRNA pool
Duration: vorinostat for 24 h, read-out about 72 h after transfection
Treatment: vorinostat at 2.5 µM final
Measured: 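Cell viability by CellTiter-Fluor and caspase 3/7 activity by luminescence, each scaled to mock wells per plate, duplicates averaged, then robust z-scored over all plates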
Reading the numbers: viability robust z-score: higher = more viable cells than screen typical; caspase robust z-score: higher = more caspase 3/7 activity than screen typical
Hit rule: 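Hits are knock-downs in viability class RV1/RV2 or caspase class CA1/CA2, excluding ones that killed cells in the no-drug cell-count arm; hits then retested with single siRNAs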
The whole screen tested about 18,000 reagents; shown is a part drawn at random. 450 of all reagents (2.5%) were called active. 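Single biological run; no consistent viability z cut-off exists, so the class columns, not z-scores, define the calls.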 Unmarked entries are inactive.

no.	gene	PubChem SID	viability hit class	caspase hit class	viability robust z-score	caspase robust z-score
1	ABCB5 (ATP binding cassette subfamily B member 5)	SID152150693	no change	no change	0.2	-0.18
2	PLEKHB1 (pleckstrin homology domain containing B1)	SID135622609	RV2 (reduced viability) (active)	CA2 (caspase activation)	-3.42	5.64
3	CNTN1 (contactin 1)	SID152151200	no change	no change	1	-0.18
4	ALG8 (ALG8 alpha-1,3-glucosyltransferase)	SID152156636	no change	no change	0.11	0.14
5	RORA (RAR related orphan receptor A)	SID134309891	no change	no change	-1.07	1.27
6	SENP3 (SUMO specific peptidase 3)	SID152149668	no change	no change	1.38	1.74
7	CSTA (cystatin A)	SID152155151	no change	no change	-1.97	0.52
8	LUM (lumican)	SID135623188	no change	no change	0.46	0.16
9	ZDHHC7 (zDHHC palmitoyltransferase 7)	SID134324700	no change	no change	0	-0.62
10	PTP4A1 (protein tyrosine phosphatase 4A1)	SID152156438	no change	no change	1.01	0.34
11	ATPAF1 (ATP synthase mitochondrial F1 complex assembly factor 1)	SID135622598	no change	no change	0.18	-0.05
12	RETREG2 (reticulophagy regulator family member 2)	SID152148053	no change	no change	-0.81	-0.7
13	ADAP1 (ArfGAP with dual PH domains 1)	SID135622391	no change	no change	-0.41	0.9
14	CD48 (CD48 molecule)	SID152148578	no change	no change	-0.74	-0.07

Records listed so far whose target name begins with A or a:
gene	PubChem SID	viability hit class	caspase hit class	viability robust z-score	caspase robust z-score
ABCB5 (ATP binding cassette subfamily B member 5)	SID152150693	no change	no change	0.2	-0.18
ALG8 (ALG8 alpha-1,3-glucosyltransferase)	SID152156636	no change	no change	0.11	0.14
ATPAF1 (ATP synthase mitochondrial F1 complex assembly factor 1)	SID135622598	no change	no change	0.18	-0.05
ADAP1 (ArfGAP with dual PH domains 1)	SID135622391	no change	no change	-0.41	0.9

More records follow.
no.	gene	PubChem SID	viability hit class	caspase hit class	viability robust z-score	caspase robust z-score
15	ZNF419 (zinc finger protein 419)	SID135623167	no change	no change	0.06	-0.89
16	COX7A2L (cytochrome c oxidase subunit 7A2 like)	SID134317413	no change	no change	-1.77	0.18
17	TFCP2L1 (transcription factor CP2 like 1)	SID134324088	no change	no change	-0.68	1.13
18	PRR23B (proline rich 23B)	SID135624753	no change	no change	0.42	-0.9
19	NHLH1 (nescient helix-loop-helix 1)	SID152152256	no change	no change	0.03	0.05
20	CHST10 (carbohydrate sulfotransferase 10)	SID152150487	no change	no change	0.93	-0.5
21	CLSTN1 (calsyntenin 1)	SID135623980	no change	no change	-0.07	1.19
22	SIAH3 (siah E3 ubiquitin protein ligase family member 3)	SID135625108	no change	no change	-0.65	-0.76
23	POMK (protein O-mannose kinase)	SID56479008	no change	no change	0.14	-0.55
24	LMO2 (LIM domain only 2)	SID134316417	no change	no change	1.42	-0.47
25	CD300LG (CD300 molecule like family member g)	SID152155569	no change	no change	1.26	1.16
26	TIPE3 (TNF alpha induced protein 8 like 3)	SID152156483	no change	no change	0.24	0.33
27	NRIP2 (nuclear receptor interacting protein 2)	SID134314073	no change (active)	CA1 (caspase activation)	-1.29	7.5
28	CDY1B (chromodomain Y-linked 1B)	SID134329830	no change	no change	-0.57	4.61
29	SPPL2C (signal peptide peptidase like 2C)	SID134311355	no change	no change	0.52	-0.89
30	TVP23B (trans-golgi network vesicle protein 23 homolog B)	SID135624084	no change	no change	0.55	0.7
31	WDR45 (WD repeat domain 45)	SID152151488	no change	no change	-0.13	-0.94
32	HECW1	SID152155008	no change	no change	0.38	-0.7
33	KCTD2 (potassium channel tetramerization domain containing 2)	SID135625151	no change	no change	0.52	1.88
34	MT1B (metallothionein 1B)	SID135622378	no change	no change	-1.19	0.26
35	SLC71A1	SID134319120	no change	no change	1.1	0.32
36	IDS (iduronate 2-sulfatase)	SID152153429	no change	no change	-0.82	-0.84
37	KRT3 (keratin 3)	SID135622418	no change	no change	-0.88	2.44
38	MCAT	SID135622693	no change	no change	0.43	-1.07
39	CENPQ (centromere protein Q)	SID134324413	no change	no change	-0.08	-0.07
